Reference: PubChem BioAssay AID504791 (Drosophila RNAi Screening Center, 2011)

- Screen: 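Genes whose knock-down strengthens or weakens small-RNA reporter silencing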 (primary screen)
- System: Drosophila S2-derived reporter cells
- Reagents: long dsRNA against Drosophila genes, about 150-250 ng dsRNA per well (siRNA assay); about 80-120 ng (miRNA assay)
- Duration: about 5 days (siRNA assay); about 4 days (miRNA assay)
- Challenge: copper sulfate induction of reporters: 25 µM (siRNA assay); 200 mM stated (miRNA assay), 1-2 days before reading
- Measurement: 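Per-well ratio of Renilla over firefly light, expressed relative to that plate's average ratio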
- Hit rule: 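First-pass picks had plate-scaled ratios over 1.5 for the siRNA assay, over 1.6 for the miRNA assay, or under 0.6; two distinct dsRNAs had to score alike on retest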
The screen tested about 23,000 reagents; this is an unselected part of those with a known target gene and a result. In the full data, 199 (0.86%) were called active. 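Plate-scaled ratios behind the calls are not deposited; printed light signals are raw; many rows marked increased or decreased are still called inactive.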 Unmarked entries are inactive. The numbers tell different reagents against one gene apart. Not given: the direction of the score.

CG1636 | stable assay Renilla, run 1 (luminescence) = 4870; stable assay firefly, run 1 (luminescence) = 3.81e5
Gr89a | stable assay Renilla, run 1 (luminescence) = 8454; stable assay firefly, run 1 (luminescence) = 5.93e5
CG16998 | stable assay Renilla, run 1 (luminescence) = 7090; stable assay firefly, run 1 (luminescence) = 3.83e5
CG15145 | stable assay Renilla, run 1 (luminescence) = 6667; stable assay firefly, run 1 (luminescence) = 3.32e5
Osi17 | stable assay Renilla, run 1 (luminescence) = 6475; stable assay firefly, run 1 (luminescence) = 5.32e5
CG14966 | stable assay Renilla, run 1 (luminescence) = 6867; stable assay firefly, run 1 (luminescence) = 5.45e5
viaf | stable assay Renilla, run 1 (luminescence) = 6563; stable assay firefly, run 1 (luminescence) = 3.03e5
RpS23 #1 | stable assay Renilla, run 1 (luminescence) = 8083; stable assay firefly, run 1 (luminescence) = 6.13e5
RpS23 #2 | miRNA reporter change = reporter ratio lowered past the hit cutoff
CG42544 | stable assay Renilla, run 1 (luminescence) = 5732; stable assay firefly, run 1 (luminescence) = 3.30e5
18w | stable assay Renilla, run 1 (luminescence) = 9420; stable assay firefly, run 1 (luminescence) = 2.87e5
CG3626 | stable assay Renilla, run 1 (luminescence) = 5795; stable assay firefly, run 1 (luminescence) = 3.33e5
CG9902 | stable assay Renilla, run 1 (luminescence) = 6247; stable assay firefly, run 1 (luminescence) = 4.87e5
ca #1 | stable assay Renilla, run 1 (luminescence) = 8912; stable assay firefly, run 1 (luminescence) = 4.88e5
ca #2 | stable assay Renilla, run 1 (luminescence) = 5522; stable assay firefly, run 1 (luminescence) = 3.38e5
ca #3 | stable assay Renilla, run 1 (luminescence) = 5771; stable assay firefly, run 1 (luminescence) = 3.40e5
tio | stable assay Renilla, run 1 (luminescence) = 7487; stable assay firefly, run 1 (luminescence) = 3.96e5
Mabi | stable assay Renilla, run 1 (luminescence) = 4691; stable assay firefly, run 1 (luminescence) = 4.86e5
CG9588 | stable assay Renilla, run 1 (luminescence) = 7351; stable assay firefly, run 1 (luminescence) = 3.39e5
dpr20 | stable assay Renilla, run 1 (luminescence) = 10517; stable assay firefly, run 1 (luminescence) = 4.73e5
Adck1 | stable assay Renilla, run 1 (luminescence) = 28662; stable assay firefly, run 1 (luminescence) = 1.14e6
CG17999 | stable assay Renilla, run 1 (luminescence) = 1.31e5; stable assay firefly, run 1 (luminescence) = 4.43e5
CG10104 | stable assay Renilla, run 1 (luminescence) = 6459; stable assay firefly, run 1 (luminescence) = 4.45e5
CG12375 | stable assay Renilla, run 1 (luminescence) = 13448; stable assay firefly, run 1 (luminescence) = 2.02e5
dgt4 | stable assay Renilla, run 1 (luminescence) = 4839; stable assay firefly, run 1 (luminescence) = 2.60e5
Spn31A | stable assay Renilla, run 1 (luminescence) = 7244; stable assay firefly, run 1 (luminescence) = 4.48e5
Rtf1 | stable siRNA reporter change = reporter ratio lowered past the hit cutoff (active); stable assay Renilla, run 1 (luminescence) = 7258; stable assay firefly, run 1 (luminescence) = 1.22e6
Cyp1 | stable assay Renilla, run 1 (luminescence) = 8656; stable assay firefly, run 1 (luminescence) = 6.15e5

Single entries from the list.
For “stable assay firefly, run 1 (luminescence)”, CG1636 reads 3.81e5
For “stable assay Renilla, run 1 (luminescence)”, Gr89a reads 8454
